US9120820B2, “Fluorescent molecular probes for use in assays that measure test compound competitive binding with SAM-utilizing proteins” (CAYMAN CHEMICAL COMPANY, INCORPORATED, priority 2011, dated 2015)
At least one structure is not confirmed: it was looked up by name or label, or the drawing left a doubt.

Assays:
[1] = molecular target: T1, SET7/9 (Homo sapiens, UniProt Q8WTS6); details: cited from earlier work
T1 sequence (Q8WTS6 1-366): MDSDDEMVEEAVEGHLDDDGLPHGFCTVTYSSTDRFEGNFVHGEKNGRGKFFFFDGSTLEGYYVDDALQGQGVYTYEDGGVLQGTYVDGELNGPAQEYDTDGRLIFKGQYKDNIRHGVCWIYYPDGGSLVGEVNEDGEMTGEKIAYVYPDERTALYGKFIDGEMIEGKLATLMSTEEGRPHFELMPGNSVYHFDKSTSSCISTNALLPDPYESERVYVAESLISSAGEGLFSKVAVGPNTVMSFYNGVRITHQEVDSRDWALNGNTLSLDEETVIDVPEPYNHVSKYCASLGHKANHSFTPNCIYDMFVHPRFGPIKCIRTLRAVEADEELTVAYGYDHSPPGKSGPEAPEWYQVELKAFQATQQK

[2] = tested on: Arabidopsis LSMT; details: cited from earlier work
[3] = molecular target: T1, SET7/9; test: SET7/9 SAM-Screener high-throughput FP assay, Sinefungin Probe 1A displacement; format: binding; parameters: purchased Cayman 10320; details: sinefungin 50 μM
[4] = tested on: MLL; test: High-throughput FP Sinefungin Probe 1A binding assay adapted for MLL; details: sinefungin 300 μM
Experimental: Adaptation for GLP and MLL: Assays for probe binding to two other methyltransferases (GLP and MLL) were also adapted to high throughput format. The assay conditions were identical to the SET7/9 assay, however the protein concentration was increased to raise the signal:noise ratio for the assay. For GLP, the protein concentration was raised to 500 nM, while the concentration of MLL was raised to 1 μM. Data were analyzed in GraphPad Prism (v. 5.04) and/or GeneData (v. 9.01).
This assay was also adapted for high throughput format against the methyltransferase MLL (Cayman Catalog Item #10658). Relevant data are illustrated in FIG. 10: The fluorescence polarization (FP) Sinefungin Probe 1A binding assay was adapted to a high-throughput inhibitor screening format for both A) MLL and B) SET7/9. The probe polarization is increased by >120 mp by binding to SET7/9 (30 nM) and by >145 mp by binding to MLL (1 μM). […] Sixty-four replicates were tested for each condition for SET7/9, sixteen replicates were tested for MLL. Z′ factor scores were >0.5 for all conditions tested (SET7/9:sinefungin: 0.71; SAM: 0.72; no SET7/9: 0.69; MLL:sinefungin: 0.72).

[5] = molecular target: T1, SET7/9; test: Sinefungin Probe 1B displacement FP assay with SET7/9 (Epigenetics Screening Library profiling); format: binding; parameters: purchased Cayman 10320; details: SET7/9, 8-point concentration-response
Experimental: Profiling of a pre-production version of the Cayman Chemical Epigenetics Screening Library (Cayman Catalog Item #11076) against SET7/9 and GLP was performed in a similar manner using Sinefungin Probe 1B. For GLP, the enzyme concentration was raised to 500 nM to produce a robust signal:noise ratio. Data were analyzed in GraphPad Prism (v. 5.04) and/or GeneData (v. 9.01).
An analog of Sinefungin Probe 1A, Sinefungin Probe 1B, wherein the hexyl portion of the linker moiety is replaced with PEG3 and the Cal Fluor® Red 610 fluorophore moiety is replaced with the “Fluor585” (Texas Red)-derived fluorophore moiety, was tested for the ability to bind several methyltransferases, including SET7/9. […] Similar data have been observed for GLP and G9a.

Nc1ncnc2c1ncn2[C@@H]1O[C@H](C[C@@H](N)CC[C@H](N)C(=O)O)[C@@H](O)[C@H]1O [sinefungin, Sinefungin]
affinity relative to SAM [1]: six-fold lower affinity than SAM
affinity relative to SAM [2]: fourteen-fold lower affinity than SAM
inhibition of probe binding (controls) [3]: fully inhibits probe binding
inhibition of probe binding (controls) [4]: fully inhibits probe binding
inhibition of probe binding [5]: showed appreciable inhibition
